Library screen at single concentrations

Amino acid sequences for entries named in this document (tags omitted). Residues count along the entry.
UniProt Q4DA54, 1-478: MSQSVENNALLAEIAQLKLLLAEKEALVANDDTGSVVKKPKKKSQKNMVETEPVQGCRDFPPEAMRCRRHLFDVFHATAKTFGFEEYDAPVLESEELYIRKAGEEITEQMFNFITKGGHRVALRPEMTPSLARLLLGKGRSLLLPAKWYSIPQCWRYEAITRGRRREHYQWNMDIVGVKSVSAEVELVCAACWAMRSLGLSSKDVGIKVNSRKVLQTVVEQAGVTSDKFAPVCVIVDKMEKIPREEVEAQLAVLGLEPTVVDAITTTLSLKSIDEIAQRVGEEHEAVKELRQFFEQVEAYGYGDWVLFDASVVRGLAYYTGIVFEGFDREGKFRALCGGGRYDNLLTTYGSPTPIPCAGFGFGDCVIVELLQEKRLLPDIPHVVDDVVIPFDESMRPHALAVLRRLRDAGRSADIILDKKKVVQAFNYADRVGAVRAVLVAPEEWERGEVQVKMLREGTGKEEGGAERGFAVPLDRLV
UniProt Q8IDJ8, 1-583: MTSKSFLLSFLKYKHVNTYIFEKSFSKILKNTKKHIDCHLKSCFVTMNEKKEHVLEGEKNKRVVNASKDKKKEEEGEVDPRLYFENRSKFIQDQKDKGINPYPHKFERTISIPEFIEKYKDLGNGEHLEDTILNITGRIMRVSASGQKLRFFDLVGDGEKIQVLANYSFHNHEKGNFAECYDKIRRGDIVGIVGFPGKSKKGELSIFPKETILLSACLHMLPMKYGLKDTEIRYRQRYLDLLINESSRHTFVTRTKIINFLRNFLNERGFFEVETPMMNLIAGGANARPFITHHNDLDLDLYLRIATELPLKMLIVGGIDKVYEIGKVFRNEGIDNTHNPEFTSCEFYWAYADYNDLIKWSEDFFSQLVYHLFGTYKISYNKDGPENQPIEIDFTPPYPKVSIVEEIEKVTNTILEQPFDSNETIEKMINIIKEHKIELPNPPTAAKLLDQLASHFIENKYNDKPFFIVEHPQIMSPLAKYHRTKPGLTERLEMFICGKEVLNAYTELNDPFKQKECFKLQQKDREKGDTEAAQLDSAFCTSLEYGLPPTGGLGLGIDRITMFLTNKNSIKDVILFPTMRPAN

Measurements from “University of Dundee, Small-Polar-MMV Screening Library” (2021), ChEMBL document CHEMBL3988442.

TcHisRS: 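Enzyme assay of histidyl-tRNA synthetase; the read-out is not stated. Target: Histidine-tRNA ligase, Trypanosoma cruzi CL Brener (UniProt Q4DA54). Compounds at 30 µM. Direction is inferred from retests: higher values go with stronger inhibition. Size under these conditions: about 69,000 compounds, about 31 of them at 50% or above in at least one test.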
PfKRS1: 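Lysine-tRNA ligase, Plasmodium falciparum 3D7 (UniProt Q8IDJ8). Enzyme assay of the cytosolic lysyl-tRNA synthetase in 384-well plates, read by luminescence. Concentration: 30 µM. Direction is inferred from only a few compounds that gave an IC50; most scored high, so higher reads as stronger inhibition. About 69,000 compounds were tested under these conditions; 0.071% (about 49) showed 50% or more at least once.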

The filed quantity is “Percent Effect” (%). The controls that fix the scale are not given in the record; negative values are as filed. Compounds were drawn at random from those tested, without regard to their results.

* CC(C)C(NC(=O)Cn1nc2c(cc1=O)CCCC2)C(=O)O (stereo not given) : TcHisRS: 2.959%; PfKRS1: -2.264%
* CC(C)c1nsc(N2CCOC3(CCCC3)C2)n1 : TcHisRS: 3.093%; PfKRS1: -3.523%
* Cc1cc(N(C)C)nc(N(C)Cc2csc(C)n2)n1 : TcHisRS: -1.478%; PfKRS1: 8.146%
* c1cc(CNc2ncc(-c3cnccn3)c(C3CC3)n2)ccn1 : TcHisRS: -1.538%; PfKRS1: 0.5521%
* O=C(c1cccc(CNS(=O)(=O)c2ccccc2F)c1)N1CCCC1 : TcHisRS: -0.3774%; PfKRS1: 7.021%
* c1ccc(C[C@H]2[C@H](N3CCOCC3)CCN2Cc2cccnc2)cc1 : TcHisRS: 0.5405%; PfKRS1: 2.848%
* CCN(CCS(=O)(=O)c1ccc(Cl)cc1)Cc1ccc(OC)c(OC)c1 : TcHisRS: 5%; PfKRS1: 0.144%
* O=C(N1CCOCC1)[C@@]12CCO[C@@H]1CCN(CC1CCCC1)C2 : TcHisRS: 0%; PfKRS1: -0.9565%
* O=C(COCC(F)(F)F)N1CCCC(n2cccn2)C1 (stereo not given) : TcHisRS: 1.176%; PfKRS1: 0.8806%
* COCc1nc(C(=O)N2CCCC2c2noc(C)n2)cs1 (stereo not given) : TcHisRS: 3.944%; PfKRS1: -0.4104%
* CS(=O)(=O)N1CCC(C(=O)N2CCC(Cn3cccn3)CC2)CC1 : TcHisRS: 1.111%; PfKRS1: 5.131%
* Cc1ccc(CNC(=O)c2c[nH]nc2NC(=O)C2COCCO2)cc1 (stereo not given) : TcHisRS: 6.897%; PfKRS1: 0.9554%
* NC(=O)c1ccc(=O)n(Cc2cc(Br)ccc2Cl)n1 : TcHisRS: -3.158%; PfKRS1: 4.395%
* O=C(CCc1nccs1)N1CCN(c2ccc(Br)cn2)CC1 : TcHisRS: 1.132%; PfKRS1: -0.4965%
* Cn1cccc1C(=O)N1CCCCC12CC(=O)N(c1cccnc1)C2 (stereo not given) : TcHisRS: 9.453%; PfKRS1: 3.856%
* Cc1cnn(CCNc2nc(C)cc(N(C)C)n2)c1 : TcHisRS: 6.667%; PfKRS1: 2.28%
* COCCN1CC(=O)N(C(C)C)C(C)(C)C1 : TcHisRS: -5.208%; PfKRS1: 4.547%
* Cc1cnn(CC2CCCCN2C(=O)CCCc2nc(C)no2)c1 (stereo not given) : TcHisRS: 1.205%; PfKRS1: 5.526%
* Cc1ccc(CN2CCC3(CC2)CC(c2cccnc2)C(=O)N3C)o1 (stereo not given) : TcHisRS: 8.889%; PfKRS1: 4.236%
* Cc1ccc(CNC2(Cc3cc(-c4ccccn4)on3)COC2)o1 : TcHisRS: 0%; PfKRS1: 1.715%
* CCc1nnc(C2Cc3ccccc3CN2Cc2cc(C)no2)o1 (stereo not given) : TcHisRS: 2.564%; PfKRS1: -3.862%
* CCC1CCCCN1Cc1ncc(C(C)(C)C)o1 (stereo not given) : TcHisRS: 4.598%; PfKRS1: 1.004%
* O=c1c2sccc2ncn1Cc1cc(C2CC2)[nH]n1 : TcHisRS: 6.468%; PfKRS1: -1.909%
* COC(=O)CCN(CC1CCCO1)C(=O)CCc1ccc(OC)cc1 (stereo not given) : TcHisRS: -0.9804%; PfKRS1: -2.009%
* O=C(Cn1cccnc1=O)NC(Cc1cccs1)c1ccccn1 (stereo not given) : TcHisRS: -0.5405%; PfKRS1: 2.733%
* CC1CCCN(C(=O)NCC(F)F)C1 (stereo not given) : TcHisRS: 7.514%; PfKRS1: 0.8504%
* CCOCC1(CNCc2cc(O)c3cc(C)ccc3n2)CC1 : TcHisRS: 13.1%; PfKRS1: 4.372%
* CNC(=O)c1cc(OC)c(OC)cc1N(C)S(C)(=O)=O : TcHisRS: -0.9662%; PfKRS1: -1.628%
* Cc1cccc(CC2CCCN(C(=O)Cc3csc(C)n3)C2)n1 (stereo not given) : TcHisRS: 2.239%; PfKRS1: 2.097%
* Cn1c(CN2CCOCC2)cc(=O)c(O)c1CN1CCCCC1 : TcHisRS: 7%; PfKRS1: 2.208%
* O=C(CCOc1ccccc1)N1CCCC(n2cncn2)C1 (stereo not given) : TcHisRS: 4.399%; PfKRS1: -1.493%
* O=C1C(N2CCN(c3ccccc3Cl)CC2)CCN1C1CCOCC1 (stereo not given) : TcHisRS: 7.563%; PfKRS1: -2.026%
* COc1ccc(C(=O)Nc2ccccc2-c2ccc(=O)n(C)n2)cc1 : TcHisRS: -2.062%; PfKRS1: -2.682%
* O=C(NCCc1cccc(Cl)c1)C1CCOCC1 : TcHisRS: 4.433%; PfKRS1: 9.616%
* COCc1nc(C(=O)N2CCCC(n3nc(C)cc3C)C2)cs1 (stereo not given) : TcHisRS: 3.468%; PfKRS1: 2.818%
* O=C(c1ccc2c(c1)[nH]c(=O)n2C1CCCC1)N1CC(O)C1 : TcHisRS: 1.149%; PfKRS1: 3.59%